Construct, isoform or probe ends are uncertain for at least one entry. A negative result means that nothing was seen under these conditions.
System: GST-SRMT.3
Assay: EMSA
Details: LightShift Chemiluminescent EMSA Kit (Pierce), per manufacturer, pH and temperature not stated, recombinant protein, protein details: GST (N-terminal, pGEX4T-1), label: biotin

Row | Sequence | binding result | binding result (cold probe competes) | also measured
1 | ACTTGCACATGGAAAAAAAAGGCTATTTGATG (double strand) [mutant ME5] | no binding | – | –
2 | ACTTGCACATGGATAAGGTCGGCTATTTGATG (double strand) [ME5] | – | binds | –
3 | CAAAATGAAACACAAAAAAAATGTGGACATTAG (double strand) [mutant ME4] | no binding | – | –
4 | CAAAATGAAACACGACCAAACTGTGGACATTAG (double strand) [ME4] | – | – | binding result (cold probe competes, strongest of the MEs): binds
5 | TCTCGAAGTTTAAAAAAAACTTCATCAATC (double strand) [mutant ME2] | no binding | – | –
6 | TCTCGAAGTTTGACCTTCCCTTCATCAATC (double strand) [ME2] | – | binds | –
